These results are taken from publication PMC10195817, “Autophagy receptor NDP52 alters DNA conformation to modulate RNA polymerase II transcription” (Nature Communications, 2022).

For some assays here: Weaker means in comparison with the reference protein, sequence or condition of that experiment. Where a protein sequence is shown, tags need not be part of it. For some assays here: Construct, isoform or probe ends are uncertain for at least one entry. For some assays here: No signal at the amounts used counts as a negative.

The target of data set [1] is T1, NNDP52 (Human) (UniProt Q13137).
T1 sequence (looked up): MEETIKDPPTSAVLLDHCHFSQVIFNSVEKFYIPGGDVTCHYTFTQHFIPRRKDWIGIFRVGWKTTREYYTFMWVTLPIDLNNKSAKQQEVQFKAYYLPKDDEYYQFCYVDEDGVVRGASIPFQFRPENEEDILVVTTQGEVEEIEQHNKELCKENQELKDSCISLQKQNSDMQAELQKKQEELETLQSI
Kind of data set: fluorescence titration. The following applies: much lower affinity, recombinant protein, residues 1-190, protein details: His-tag (pET151).

Data set [2] addresses T2, NDP52-FL (Human) (UniProt Q13137).
T2 sequence (looked up): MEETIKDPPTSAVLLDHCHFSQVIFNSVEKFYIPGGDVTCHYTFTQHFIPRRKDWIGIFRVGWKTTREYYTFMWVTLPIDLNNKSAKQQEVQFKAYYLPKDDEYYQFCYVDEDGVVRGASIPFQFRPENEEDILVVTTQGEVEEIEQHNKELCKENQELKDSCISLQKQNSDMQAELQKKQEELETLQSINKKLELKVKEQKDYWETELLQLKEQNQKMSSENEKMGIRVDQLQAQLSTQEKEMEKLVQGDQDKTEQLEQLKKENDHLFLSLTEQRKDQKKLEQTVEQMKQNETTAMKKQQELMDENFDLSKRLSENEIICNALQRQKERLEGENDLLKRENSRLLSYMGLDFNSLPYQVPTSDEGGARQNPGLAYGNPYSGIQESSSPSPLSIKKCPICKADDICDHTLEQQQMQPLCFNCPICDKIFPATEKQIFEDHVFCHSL
Nature of the data set: competition with a labelled probe. To be noted: against FAM-ds40; EMSA: 50 mM Tris-HCl pH 7.5, 50 mM NaCl, 3 mM MgCl2, 5 min; temperature not stated; recombinant protein; residues 1-446; protein details: His-tag (pET151); single-stranded DNA.

In data set [3] the target is T2, NDP52-FL (Human). Nature of the data set: AFM. To be noted: magnesium buffer or poly-L-ornithine, prefers DNA ends; recombinant protein; residues 1-446; protein details: His-tag (pET151).
Data set [4] has as its target T3, CNDP52 (Human) (UniProt Q13137).
T3 sequence (looked up): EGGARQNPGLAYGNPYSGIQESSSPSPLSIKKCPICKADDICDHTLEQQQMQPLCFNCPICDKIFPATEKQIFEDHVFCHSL
Nature of the data set: AFM. To be noted: PLL, clustering around DNA; recombinant protein; residues 365-446; protein details: His-tag (pET151).

As to “TTAGTTGTTCGTAGTGCTCGTCTGGCTCTGGATTACCCGC (double strand) [ds40]”, in data set [1], the binding result is reported as “binds more weakly”.
Turning to TTAGTTGTTCTCTGG (double strand) [ds15], the binding result in data set [1] (label: 3' FAM (called FITC in Methods) on strand 1) is reported as “binds more weakly”.
As for “TTAGTTGTTCGTAGTGCTCGTCTGGCTCTGGATTACCCGC [ssDNA competitor (40 bases)]”, in data set [2], the binding result is reported as “no binding”.
For the sequence “TATGTTGTGTTTTACAGTATTATGTAGTCTGTTTTTTATGCAAAATCTAATTTAATATATTGATATTTATATCATTTTACGTTTCTCGTTCAGCTTTTTTATACTAACTTGAGCGAAACGGGAAGGGTTTTCACCGATATCACCGAAACGCGCGAGGCAGCTGTATGGCGAAATGAAAGAACAAACTTTCTTGTACGCGGTGGTGAGAGAGAGAGAGAGATACGACTACTATCAGCCGGAAGCCTATGTACCGAGTTCCGACACTTTCATTGAGAAAGATGCCTCAGCTCTGTTACAGGTCACTAATACCATCTAAGTAGTTGATTCATAGTGACTGCA (double strand) [ds339]”, the binding result in data set [3] and in data set [4] was “binds” each time.
